The results in this text go back to PubChem BioAssay AID2685 (National Center for Advancing Translational Sciences (NCATS), 2010).

The assay can be described thus: qHTS Assay for Lipid Storage Modulators in Drosophila S3 Cells.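 For cell number change: cells counted by Cell Tracker Red CMTPX staining in the red channel.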 The note with it: BODIPY lipid droplet fluorescence, 18-24 h; for cell number change: measured here: cell count max response, cells fed with added oleic acid. The gist of the method:
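Laser-scanning cytometry quantifies lipid droplet accumulation (500–530 nm total intensity; droplet/cell object ratio) in oleic acid-fed (400 uM added) Drosophila S3 cells treated with a concentration series. 20 uM Triacsin C defined 100% inhibition.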
For orientation: qHTS replaces the single test concentration by a dilution series.

Setting [1] is: measured here: cell number channel AC50, cells fed with added oleic acid.
[2] abbreviates: measured here: lipid fluorescence (Fed channel) AC50, cells fed with added oleic acid.

Molecules are shown by their SMILES. Values joined by “and” are separate entries in the source; they are usually repeats but may differ in a detail not shown here. Equal entries are not always repeated. The list shows a part of the results. The main result of the screen is listed elsewhere. These columns were measured beside it and carry no call. Most of these compounds were active or inconclusive in the main read-out, so they are no random draw. Potencies come from curve fits of mixed quality, noted in brackets.

As usually defined, the AC50 is the midpoint of the concentration-response curve, whichever way the signal moves. Low readings indicate activity at low concentration, high ones activity only at high concentration. With `O=C(Nc1cc(-c2nn(CC(=O)N3CCCCC3)c(=O)c3ccccc23)ccc1N1CCOCC1)c1ccc(Cl)cc1`, the cell number change stood at 30.2%. Besides, the AC50 under setting [1] was 1.03 µM [rising, full curve, poor fit].

As for `C[C@H](NC(=O)[C@@H]1CCC(=O)N1Cc1ccco1)c1ccccc1`, the cell number change is -15.3%. Further, the AC50 under setting [1] was 3.26 µM [falling, single point]. Take `C=CCn1c(Cc2cccs2)nnc1SCC(=O)NCc1ccco1`: the cell number change stood at 5.22%. Also, under setting [2], the AC50 was 0.116 µM [falling, full curve, poor fit].

As to `O=C(N/N=C\c1cccc(Cl)c1)c1n[nH]c2c1CCCC2`, the cell number change is -21.8%. Moreover, the AC50 under setting [2] was 29.1 µM [falling, single point]. Regarding `O=C(Nc1cccc(S(=O)(=O)N2CCOCC2)c1)c1cc2c(s1)CCC2`, the cell number change was found to be 11.9%. For the same compound, the AC50 under setting [1] is 0.092 µM [rising, full curve, poor fit]. Turning to `CCOC(=O)N1CCC(N2CCN(Cc3ccccc3)C(CCO)C2)CC1` (stereo not drawn), the cell number change was -24.6%. Further, the AC50 under setting [2] is 25.9 µM [falling, partial curve, poor fit]. On to `COc1ccc(OCCCC(=O)Nc2cc(S(=O)(=O)N3CCCCC3)ccc2OC)cc1`, for which the cell number change is -8.46%. In addition, the AC50 under setting [2] was 0.00517 µM [falling, full curve, poor fit]. In the case of `Cc1c(C)n(C)c2ccc(C(=O)NCCCN3CCN(c4ccccc4F)CC3)cc12`, the cell number change was determined as 33.1%. The AC50 under setting [2] is 29.1 µM [rising, partial curve]. For `COc1cccc(C2NC(C)(C(=O)O)C3C(=O)N(C(C)C)C(=O)C23)c1O` (stereo not drawn), the cell number change is -10.4%. For the same compound, the AC50 under setting [2] is 0.00517 µM [rising, full curve, poor fit]. As for `COc1ccc(N2CCN(C(CNC(=O)C(C)C)c3ccc4c(c3)OCO4)CC2)cc1` (stereo not drawn), the cell number change was -10.1%. Also, the AC50 under setting [2] is 0.58 µM [falling, single point]. Regarding `COc1ccccc1-c1noc(COC(=O)c2ccc(Br)o2)n1`, the cell number change was -23.5%. Also, the AC50 under setting [2] is 8.2 µM [falling, partial curve, poor fit]. Take `O=C(/C=C/c1ccccc1)NCc1ccc2c(c1)OCO2`: the cell number change stood at 55.6%. Also, the AC50 under setting [1] was 7.31 µM [rising, partial curve]. As for `CN(C)c1ccc(NC(=S)c2ccc3ccccc3n2)cc1`, the cell number change was -10.4%. Moreover, under setting [2], the AC50 was 6.51 µM [falling, single point].

For the compound `O=C(COC(=O)Cn1cnc2ccccc2c1=O)NCCC1=CCCCC1`, the cell number change was -4.6%. The AC50 under setting [1] is 6.51 µM [falling, single point]. With `c1ccc(CCCCN2CCN=C2Nc2ccccc2)cc1`, the cell number change worked out at 18.6%. Moreover, the concentration at half-maximal activity (AC50) under setting [1] is 0.731 µM [falling, single point]. For the same compound, the AC50 under setting [2] is 18.4 µM [falling, single point]. Turning to `CC(C)c1ccc(NC(=O)c2cnn(-c3ccccc3)c2NC(=O)c2ccco2)cc1`, the cell number change was -9.01%. Under setting [2], the AC50 is 0.731 µM [falling, full curve, poor fit]. `COc1cc([N+](=O)[O-])ccc1NC(=O)Cc1ccccc1`: the cell number change stood at 157%. On to `S=C(N/N=C1\C2CN3CCN(C2)CC1(c1ccccc1)C3)Nc1ccccc1`, for which the cell number change amounted to 117%. Moreover, the AC50 under setting [1] was 29.1 µM [rising, single point]. Besides, under setting [2], the AC50 was 9.2 µM [rising, partial curve, poor fit]. Consider `CN(C)c1ccc(-c2cc(O)c3ncccc3c2)cc1`, for which the cell number change was 21.3% and 25%. The AC50 under setting [2] was 20.6 µM [rising, single point]. Turning to `Cc1ccc(C(=O)NCCSc2snnc2C)cc1`, the cell number change was 59.9%. Also, under setting [1], the AC50 is 8.2 µM [rising, partial curve]. Under setting [2], the AC50 is 13 µM [rising, partial curve]. In the case of `CN(c1cccc(NC(=O)Cc2ccccc2)c1)S(C)(=O)=O`, the cell number change was 10.6%. The AC50 under setting [2] was 29.1 µM [rising, partial curve, poor fit]. For the compound `COc1ccccc1C1=NOC(COC(=O)c2ccc(Br)cc2)C1` (stereo not drawn), the cell number change is -11.7%. On to `Cc1ccc(C)c(NC(=S)NNC(=O)c2sccc2C)c1`, for which the cell number change turned out to be 33.7%. Further, the AC50 under setting [1] is 14.6 µM [rising, partial curve]. Besides, the AC50 under setting [2] is 4.11 µM [rising, full curve]. As for `COc1ccc(C)cc1Nc1c2c(nc3ccccc13)CCC2`, the cell number change is -24.8%. Also, under setting [2], the AC50 is 23.1 µM [falling, single point]. In the case of `O=C(c1ccc(Cl)cc1)N1CCC(c2nc(-c3cccs3)no2)CC1`, the cell number change is -14.5%. For the same compound, the half-maximal activity concentration (AC50) under setting [2] is 6.51 µM [rising, single point].

As to `O=C(CCS(=O)(=O)c1ccccc1)N1CCN(c2ccccc2)CC1`, the cell number change is 4.34%. The AC50 under setting [2] was 29.1 µM [rising, single point].

Consider `N#C/C(=C\c1ccc(N2CCCCC2)o1)C(N)=O`, for which the cell number change was -20.8%. Further, the AC50 under setting [2] is 14.6 µM [falling, single point]. As to `CC(=O)N1CCc2cc(S(=O)(=O)NCC(=O)NCc3ccc(F)cc3)ccc21`, the AC50 under setting [2] is 29.1 µM [rising, single point]. For the compound `Cn1ncc([N+](=O)[O-])c1C(=O)Nc1nccs1`, the cell number change is -50%. Under setting [1], the AC50 was 2.59 µM [falling, partial curve, poor fit]. For the compound `CCCCN(CC)C(=O)CSc1cc(=O)n(C)c2ccccc12`, the AC50 under setting [1] is 2.59 µM [rising, partial curve]. Take `CN1CCN(CC(=O)N/N=C/c2ccc(F)c(F)c2)CC1`: the cell number change was -2.73%. For the same compound, the AC50 under setting [2] is 6.51 µM [rising, partial curve, poor fit]. Consider `COC1=CCC2([N+](=O)[O-])CN(CC(=O)O)CC1([N+](=O)[O-])C2` (stereo not drawn), for which the cell number change was -22%. Moreover, the AC50 under setting [1] was 0.116 µM [falling, full curve, poor fit]. Further, the AC50 under setting [2] is 0.082 µM [falling, full curve, poor fit]. For the compound `CC1=C(C(=O)OCc2ccccc2)C(c2ccco2)n2ncnc2N1` (stereo not drawn), the AC50 under setting [2] was 6.51 µM [rising, single point].

As to `COC(=O)c1cc(NC(=O)c2cccc(C(F)(F)F)c2)c(=O)oc1C`, the cell number change is -6.71%. Besides, the AC50 under setting [2] is 0.92 µM [rising, single point].

On to `COc1cccc(NC(=O)c2ccccc2-c2ccccc2)c1`, for which the cell number change amounted to 10.8%. Moreover, the AC50 under setting [2] is 0.13 µM [rising, full curve, poor fit].

Regarding `Cc1ccc(OCCOc2ccc(S(=O)(=O)N3CCCC3)cc2C(N)=O)cc1`, the cell number change was -8.15%.

On to `CC(C)N(Cc1nc(-c2ccccc2)no1)C(=O)CSc1ccccc1`, for which the cell number change was determined as 200%. Under setting [1], the AC50 is 8.2 µM [rising, partial curve]. For the same compound, the AC50 under setting [2] was 29.1 µM [rising, partial curve]. In the case of `CCc1cccc2c(C=C(C#N)C#N)cn(CC(=O)N3CCCCCC3)c12`, the cell number change worked out at 31.6%. Besides, the AC50 under setting [1] was 29.1 µM [rising, single point].

Consider `CCCCOCCCNc1ncnc2c1[nH]c1ccccc12`, for which the cell number change is -38.1%. Besides, the half-maximal activity concentration (AC50) under setting [1] was 1.46 µM [falling, full curve, poor fit]. Also, the AC50 under setting [2] is 5.17 µM [falling, partial curve].

Turning to `Cc1cccc(Cn2c(N3CCN(C)CC3)nc3c2c(=O)[nH]c(=O)n3C)c1`, the cell number change worked out at 16.6%. Besides, the AC50 under setting [2] is 0.0651 µM [rising, full curve, poor fit].

In the case of `OCCOCCOc1ccc(-c2nn[nH]n2)cc1`, the cell number change was -50.7%. Under setting [1], the AC50 was 5.17 µM [falling, full curve, poor fit]. In addition, the AC50 under setting [2] was 3.66 µM [falling, full curve].

For `COC(=O)c1c(C)oc2ccc(N(C(=O)Oc3ccccc3)S(=O)(=O)c3ccc(Cl)c([N+](=O)[O-])c3)cc12`, the cell number change is 11.8%. For the same compound, under setting [2], the AC50 is 29.1 µM [rising, single point]. As for `CCOc1cc(/C=N/NC(=O)c2cccc(S(=O)(=O)N3CCCC3)c2)ccc1OCC(=O)N(C)C`, the cell number change stood at 24.9%.

For `COc1cccc(CN(C)C(=O)c2cc(S(=O)(=O)N3CCCCCC3)ccc2OC)c1`, the cell number change came to 7.02%. Further, under setting [2], the AC50 is 3.26 µM [falling, single point]. `O=C(NNC(=O)c1c(F)cccc1F)c1ccccc1-n1cccc1`: the cell number change is 7.74%. Moreover, the AC50 under setting [1] is 0.82 µM [rising, single point]. With `Cc1ccc(OCC(=O)Nc2ccc3c(c2)C(=O)NC3=O)c(C)c1`, the cell number change is 25.9%. For the same compound, under setting [2], the AC50 was 6.51 µM [rising, single point]. For the compound `CC1Sc2ccc(S(=O)(=O)N3CCC(C(=O)Nc4cccc(Cl)c4)CC3)cc2NC1=O` (stereo not drawn), the cell number change was -15.1%. As for `Cc1ccc(N(Cc2cc3ccccc3[nH]c2=O)C(=O)c2cccs2)cc1C`, the cell number change is 6.71%. For the same compound, under setting [2], the AC50 is 0.146 µM [rising, partial curve, poor fit]. As for `COc1cccc(OCC(O)CN(CCO)Cc2ccccc2)c1` (stereo not drawn), the cell number change was determined as 1.98%. In addition, under setting [2], the AC50 was 6.51 µM [falling, single point]. For the compound `Cc1cc(=O)[nH]c(SCC(N)=O)c1C#N`, under setting [2], the AC50 was 18.4 µM [falling, partial curve].

On to `CCOc1cc(/C=C2\CN(C)C/C(=C\c3ccc(O)c(OCC)c3)C2=O)ccc1O`, for which the cell number change is -46.9%. Moreover, the AC50 under setting [1] is 18.4 µM [falling, single point]. For the same compound, the AC50 under setting [2] was 16.4 µM [falling, partial curve].

For `Cc1ccc(Nc2nc(-c3sc(N)nc3C)cs2)cc1`, the cell number change was -74.3%. Also, the AC50 under setting [1] is 14.6 µM [falling, partial curve]. For `O=C(CNC(=O)c1sc2ccccc2c1Cl)OCc1ccccc1`, the cell number change turned out to be 0.647%. Besides, the half-maximal activity concentration (AC50) under setting [2] was 0.58 µM [falling, full curve, poor fit].

Turning to `O=c1[nH]cnc2c1C(c1ccccc1)c1c(nc[nH]c1=O)O2`, the cell number change is 5.56%. On to `COc1ccc(C(C#N)c2cnccn2)cc1OC` (stereo not drawn), for which the cell number change was determined as 1.19%. On the same count and under the same terms, the result for `CC(C)N(C)S(=O)(=O)c1ccc(NC(=O)C2=COCCO2)cc1` reads -16%; that for `CN(Cc1ccccc1)c1ccc(S(=O)(=O)N2CCOCC2)cn1`, 5.97%. In the case of `Cc1cc(C)c(S(=O)(=O)N2CCCC(C(=O)NCc3cccnc3)C2)c(C)c1` (stereo not drawn), the cell number change was -16.9%. For the same compound, the AC50 under setting [2] was 6.51 µM [rising, single point]. With `CC(C)(C)CN1CCN(CC#Cc2ccccc2)CC1CCO` (stereo not drawn), the cell number change came to 0.275%. The concentration at half-maximal activity (AC50) under setting [2] is 6.51 µM [falling, single point]. Consider `CCCC(=O)Nc1ccc(C(=O)Nc2cc(C(F)(F)F)ccc2Cl)cc1`, for which the cell number change was -14.1%. In addition, the AC50 under setting [2] was 29.1 µM [falling, single point]. Consider `Cc1ccc(Cl)cc1Nc1nc(-c2cccnc2)cs1`, for which the cell number change is -25.2%. For the same compound, under setting [2], the AC50 was 3.26 µM [rising, single point].
